Test results published in patent publication US10799593B2, “Nanodiamond particle complexes” (priority 2008, dated 2020).
At least one compound was matched to its structure with a doubt left. Some compounds share one wording; it may come from a single statement.

Tests used:
[1] = Particle size and zeta potential measurement (DLS) of ND-drug complexes; assay type: physicochemical
Method: The particle size and zeta potential of the complexes were measured using a Zetasizer Nano (Malvern Instruments). […] ND:Purvalanol A complexes were prepared in a similar manner in 5% aqueous DMSO as described previously. […] All size measurements were performed at 25° C. at a 90° scattering angle. Mean hydrodynamic diameters were obtained via cumulative analysis of 11 measurements.

[2] = tested on: Interleukin-6 (IL-6); experiment: RT-PCR of LPS-stimulated inflammatory cytokine expression on Parylene A films, IL-6; assay type: cell-based, murine; settings: RAW 264.7; DEX film on Parylene A or in Parylene A bi-layer; LPS last 4 hours of 24 hour incubation
[3] = tested on: Tumor Necrosis Factor-α (TNF-α); experiment: RT-PCR of LPS-stimulated inflammatory cytokine expression on Parylene A films, TNF-α; assay type: cell-based, murine; settings: RAW 264.7; DEX film on Parylene A or in Parylene A bi-layer; LPS last 4 hours of 24 hour incubation
[4] = Desorption of drug from Nanodiamond conjugates in water and PBS; assay type: physicochemical
[5] = Nanodiamond-drug binding assays (UV-vis spectrophotometry, centrifugation); assay type: physicochemical; settings: UV-vis spectrophotometry and centrifugation (14000 rpm) pelleting
Method: The binding efficiency of therapeutics such as daunorubicin, idarubicin, and others were analyzed using UV-vis spectrophotometry, as well as centrifugation assays (SEE FIGS. 18-39). In all cases, nanodiamond-drug interactions were capable of comprehensively pelleting the therapeutics (SEE FIGS. 19, 22, 25, 28, 30, 33, 36, and 39), indicating potent adsorption which was further confirmed via spectrophotometric analysis […], […], 1-32, 34-35, and 37-38).

| Structure (SMILES) | release profile of drug desorbed from Nanodiamond conjugates [4] | binding / adsorption between ND surface and therapeutic [5] | further results |
| --- | --- | --- | --- |
| C[C@@H]1C[C@H]2[C@@H]3CCC4=CC(=O)C=C[C@]4(C)[C@@]3(F)[C@@H](O)C[C@]2(C)[C@@]1(O)C(=O)CO [Dex, Dexamethasone] | – | – | average particle size upon complexing with NDs ([1]; ND 1 mg/mL, therapeutic 0.1 mg/mL): 77.55 nm; mean diameter (particle size) ([1]; in 5% DMSO, drug aggregates, not complexed with NDs): 1.245 μm; LPS-activated IL-6 gene expression [2]: decreased; LPS-activated TNF-α gene expression [3]: decreased |
| C[C@H]1c2cccc(O)c2C(=O)C2=C(O)[C@]3(O)C(=O)C(C(N)=O)=C(O)[C@@H](N(C)C)[C@@H]3[C@@H](O)[C@@H]21 [Doxycycline] | sustained release over the course of the first few hours | – | – |
| CN(C)c1ccc(O)c2c1C[C@H]1C[C@H]3[C@H](N(C)C)C(O)=C(C(N)=O)C(=O)[C@@]3(O)C(O)=C1C2=O [Minocycline, minocycline] | sustained release over the course of the first few hours | exceptional binding | – |
| CN(C)[C@@H]1C(O)=C(C(N)=O)C(=O)[C@@]2(O)C(O)=C3C(=O)c4c(O)cccc4[C@@](C)(O)[C@H]3C[C@@H]12 [Tetracycline, tetracycline] | sustained release over the course of the first few hours | exceptional binding | – |
| CN(C)[C@@H]1C(O)=C(C(N)=O)C(=O)[C@@]2(O)C(O)=C3C(=O)c4c(O)cccc4[C@@](C)(O)[C@H]3[C@H](O)[C@@H]12 [oxytetracycline] | – | exceptional binding | – |
